Reference: paper PMC4051647, “Two Adjacent and Similar TetR Family Transcriptional Regulator Genes, SAV577 and SAV576, Co-Regulate Avermectin Production in Streptomyces avermitilis”
For at least one entry, the source does not settle the construct or the ends of the probe. A negative result means that nothing was seen under these conditions. Protein sequences can lack the tags named with them.

Biological target: T1, His6-SAV577 (UniProt Q82QD3)
T1 sequence (looked up, limits assumed): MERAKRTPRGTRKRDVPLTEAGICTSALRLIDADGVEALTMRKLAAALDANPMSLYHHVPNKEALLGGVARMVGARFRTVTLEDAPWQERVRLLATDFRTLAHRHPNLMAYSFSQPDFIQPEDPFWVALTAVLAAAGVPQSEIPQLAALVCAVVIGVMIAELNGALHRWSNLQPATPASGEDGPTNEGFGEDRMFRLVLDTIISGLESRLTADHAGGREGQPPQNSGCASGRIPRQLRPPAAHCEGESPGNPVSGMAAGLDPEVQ
Assay: EMSA
Settings: 0.3 nM probe; EMSA: Roche DIG Gel Shift kit binding buffer, 1 ug poly[d(I-C)] per 20 ul, 25 C 30 min, 5% native PAGE 0.5x TBE; recombinant protein; protein details: N-terminal His6; label: DIG 3'-end; probe letters rebuilt from the primers and the genome

“AGGACGGTGGCATCGTTTTCAGCCCCTCGTTCCTCCGGTTTCGCGGAAGCGGGCTGTGTGCTGGTGGGCGGCGTAACTGGCGACGGGCAGTCCCGAACTGGTGGCCTTGATGGCCGACGAGGTCGTCAAGGCATGCCTCGGCCAGGAAAAGGCTCAGGCGGGAAGCTGCGCTCGAGGGGTGCAGCAAGGCGCTCGAGCGGCGGCTTCAGCGCACTGCCGCCTGACGTGTGCGGGCGTAGGACCGGGCGAGGCGTGTCGACCGCTCCCACTCCCGGTGTGCTCGCCCGCGGCGGCGGATCGCAGATATGCCCTGCCGAGGAGACCCTGGCGAAC (double strand) [probe 5]”: no binding.
